Measurements published in doi:10.1101/2023.09.28.559965.
These are yes or no findings as the source states them, for the method shown. In cells and extracts the contact can be indirect. These calls come from enrichment with a bait or labelling near it, and not all partners need be listed.

Amino acid sequences for entries named in this document (tags omitted).
UniProt P15924: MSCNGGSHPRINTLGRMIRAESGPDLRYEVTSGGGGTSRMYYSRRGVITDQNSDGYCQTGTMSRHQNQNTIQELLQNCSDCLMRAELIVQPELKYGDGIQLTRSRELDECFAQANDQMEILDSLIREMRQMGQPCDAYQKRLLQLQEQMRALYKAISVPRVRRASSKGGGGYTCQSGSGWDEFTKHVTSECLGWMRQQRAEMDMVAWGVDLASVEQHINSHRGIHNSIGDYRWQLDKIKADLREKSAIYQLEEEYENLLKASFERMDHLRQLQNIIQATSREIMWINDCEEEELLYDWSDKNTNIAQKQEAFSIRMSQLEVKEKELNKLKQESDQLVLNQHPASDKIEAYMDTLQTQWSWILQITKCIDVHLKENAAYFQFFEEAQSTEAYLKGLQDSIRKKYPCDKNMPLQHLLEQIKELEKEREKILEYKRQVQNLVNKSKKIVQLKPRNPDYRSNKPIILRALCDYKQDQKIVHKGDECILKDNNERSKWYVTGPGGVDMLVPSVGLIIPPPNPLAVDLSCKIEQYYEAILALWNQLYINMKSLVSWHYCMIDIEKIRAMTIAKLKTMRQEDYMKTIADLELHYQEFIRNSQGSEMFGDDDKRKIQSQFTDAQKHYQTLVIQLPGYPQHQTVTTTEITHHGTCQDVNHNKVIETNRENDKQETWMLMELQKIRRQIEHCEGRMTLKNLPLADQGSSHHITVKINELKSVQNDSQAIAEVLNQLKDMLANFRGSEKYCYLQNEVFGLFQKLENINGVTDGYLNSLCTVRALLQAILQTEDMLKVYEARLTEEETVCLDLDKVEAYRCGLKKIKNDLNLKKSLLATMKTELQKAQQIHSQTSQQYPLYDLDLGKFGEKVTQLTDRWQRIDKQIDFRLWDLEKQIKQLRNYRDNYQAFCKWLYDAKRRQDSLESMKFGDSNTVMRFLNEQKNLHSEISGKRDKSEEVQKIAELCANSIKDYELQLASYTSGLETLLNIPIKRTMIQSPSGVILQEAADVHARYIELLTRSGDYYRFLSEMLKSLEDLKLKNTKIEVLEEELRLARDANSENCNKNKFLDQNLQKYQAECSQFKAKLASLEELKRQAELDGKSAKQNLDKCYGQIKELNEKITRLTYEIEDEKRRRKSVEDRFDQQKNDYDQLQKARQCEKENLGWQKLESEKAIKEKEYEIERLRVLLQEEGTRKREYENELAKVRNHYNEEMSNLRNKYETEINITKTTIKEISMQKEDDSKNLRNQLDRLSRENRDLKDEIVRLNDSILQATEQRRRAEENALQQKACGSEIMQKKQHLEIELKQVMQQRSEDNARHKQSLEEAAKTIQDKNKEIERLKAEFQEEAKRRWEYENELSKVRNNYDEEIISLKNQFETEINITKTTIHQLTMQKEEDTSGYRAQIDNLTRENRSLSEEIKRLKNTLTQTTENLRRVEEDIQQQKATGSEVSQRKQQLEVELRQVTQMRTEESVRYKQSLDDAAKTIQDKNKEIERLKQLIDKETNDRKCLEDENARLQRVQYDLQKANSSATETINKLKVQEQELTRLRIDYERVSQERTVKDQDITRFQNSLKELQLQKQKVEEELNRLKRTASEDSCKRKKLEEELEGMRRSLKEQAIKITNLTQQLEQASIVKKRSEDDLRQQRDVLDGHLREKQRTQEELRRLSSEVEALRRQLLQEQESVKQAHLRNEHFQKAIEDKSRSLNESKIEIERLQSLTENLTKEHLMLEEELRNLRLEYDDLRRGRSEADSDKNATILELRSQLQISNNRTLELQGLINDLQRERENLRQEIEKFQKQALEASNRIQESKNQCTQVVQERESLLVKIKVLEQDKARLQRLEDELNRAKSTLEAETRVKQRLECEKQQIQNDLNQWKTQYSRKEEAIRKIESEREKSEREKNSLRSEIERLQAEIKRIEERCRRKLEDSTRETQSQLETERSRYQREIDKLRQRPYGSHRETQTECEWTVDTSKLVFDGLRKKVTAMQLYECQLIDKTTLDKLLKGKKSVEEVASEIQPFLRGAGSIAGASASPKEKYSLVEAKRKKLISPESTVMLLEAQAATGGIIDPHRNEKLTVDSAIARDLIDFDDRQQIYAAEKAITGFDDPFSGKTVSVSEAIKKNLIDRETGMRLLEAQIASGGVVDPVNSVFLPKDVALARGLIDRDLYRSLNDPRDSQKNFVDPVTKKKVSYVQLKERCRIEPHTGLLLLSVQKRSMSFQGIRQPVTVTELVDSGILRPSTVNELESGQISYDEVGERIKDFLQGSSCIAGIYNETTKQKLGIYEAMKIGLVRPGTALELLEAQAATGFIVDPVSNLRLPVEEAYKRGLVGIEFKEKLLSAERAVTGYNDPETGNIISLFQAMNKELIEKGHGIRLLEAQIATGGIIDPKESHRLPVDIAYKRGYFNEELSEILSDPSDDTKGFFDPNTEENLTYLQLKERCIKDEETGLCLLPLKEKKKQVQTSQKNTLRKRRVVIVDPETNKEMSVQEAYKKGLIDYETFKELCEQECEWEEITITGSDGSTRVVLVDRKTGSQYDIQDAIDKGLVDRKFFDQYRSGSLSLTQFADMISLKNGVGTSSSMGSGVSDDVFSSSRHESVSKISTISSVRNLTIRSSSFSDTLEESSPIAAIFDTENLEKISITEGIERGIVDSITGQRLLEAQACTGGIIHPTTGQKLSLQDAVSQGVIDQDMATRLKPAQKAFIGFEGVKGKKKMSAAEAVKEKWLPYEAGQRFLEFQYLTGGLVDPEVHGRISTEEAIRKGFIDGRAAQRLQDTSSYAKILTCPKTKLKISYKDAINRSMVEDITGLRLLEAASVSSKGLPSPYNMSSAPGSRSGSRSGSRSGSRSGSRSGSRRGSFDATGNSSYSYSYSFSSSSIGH
UniProt P08670: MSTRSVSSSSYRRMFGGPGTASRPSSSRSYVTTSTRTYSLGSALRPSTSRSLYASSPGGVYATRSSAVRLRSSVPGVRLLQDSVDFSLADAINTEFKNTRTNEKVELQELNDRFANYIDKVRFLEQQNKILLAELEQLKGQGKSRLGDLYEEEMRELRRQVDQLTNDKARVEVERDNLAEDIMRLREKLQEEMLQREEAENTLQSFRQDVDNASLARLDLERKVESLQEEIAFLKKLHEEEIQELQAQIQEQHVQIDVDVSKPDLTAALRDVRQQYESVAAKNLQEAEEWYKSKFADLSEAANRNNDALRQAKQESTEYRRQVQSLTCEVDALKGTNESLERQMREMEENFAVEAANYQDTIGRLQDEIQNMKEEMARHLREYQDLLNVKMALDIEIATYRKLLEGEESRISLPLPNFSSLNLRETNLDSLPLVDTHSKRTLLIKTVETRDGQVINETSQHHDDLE

Columns and labels:
[1] = molecular target: HER2, endogenous in SKBR3 cells (human (endogenous in SKBR3)) (UniProt P04626); experiment: affinity purification with mass spectrometry
[2] = molecular target: HER2 with eGFP tag, doxycycline-induced in MCF10A-Teti-HER2_GFP cells (UniProt P04626); experiment: affinity purification with mass spectrometry

Substance: Desmoplakin (from UniProt P15924 1-2871)
- binding [1]: binds
- binding [2]: binds

Substance: Vimentin (from UniProt P08670 1-466)
- binding [1]: binds
- binding [2]: binds
